Binding data for twelve molecules are collected here from publication PMC11739200.

Amino acid sequences for entries named in this document (tags omitted). A change or cut given only in a name is not applied to a line headed by its entry. Residues count along the entry.
UniProt P01106: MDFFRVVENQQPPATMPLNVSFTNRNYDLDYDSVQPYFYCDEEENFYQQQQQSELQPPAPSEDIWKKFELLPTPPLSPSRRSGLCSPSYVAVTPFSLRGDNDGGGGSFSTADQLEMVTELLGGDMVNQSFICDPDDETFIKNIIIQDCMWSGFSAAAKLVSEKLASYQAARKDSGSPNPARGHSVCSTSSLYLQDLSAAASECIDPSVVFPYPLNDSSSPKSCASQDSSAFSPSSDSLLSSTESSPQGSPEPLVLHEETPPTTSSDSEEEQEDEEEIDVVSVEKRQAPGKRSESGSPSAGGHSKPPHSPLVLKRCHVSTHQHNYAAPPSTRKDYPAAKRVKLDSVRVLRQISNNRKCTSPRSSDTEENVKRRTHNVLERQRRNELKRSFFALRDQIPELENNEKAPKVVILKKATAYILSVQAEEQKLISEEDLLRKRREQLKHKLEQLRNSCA
UniProt P18480, residues 1-334: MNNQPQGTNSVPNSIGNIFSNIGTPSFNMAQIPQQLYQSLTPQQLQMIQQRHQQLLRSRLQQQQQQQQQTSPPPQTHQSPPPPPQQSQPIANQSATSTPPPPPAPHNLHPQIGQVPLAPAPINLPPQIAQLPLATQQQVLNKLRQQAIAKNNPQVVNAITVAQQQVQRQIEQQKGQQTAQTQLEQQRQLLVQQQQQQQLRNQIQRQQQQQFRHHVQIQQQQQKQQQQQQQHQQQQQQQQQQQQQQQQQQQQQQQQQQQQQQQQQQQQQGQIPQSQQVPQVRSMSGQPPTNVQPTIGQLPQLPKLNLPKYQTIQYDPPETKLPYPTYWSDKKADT
UniProt P22082, residues 1-307: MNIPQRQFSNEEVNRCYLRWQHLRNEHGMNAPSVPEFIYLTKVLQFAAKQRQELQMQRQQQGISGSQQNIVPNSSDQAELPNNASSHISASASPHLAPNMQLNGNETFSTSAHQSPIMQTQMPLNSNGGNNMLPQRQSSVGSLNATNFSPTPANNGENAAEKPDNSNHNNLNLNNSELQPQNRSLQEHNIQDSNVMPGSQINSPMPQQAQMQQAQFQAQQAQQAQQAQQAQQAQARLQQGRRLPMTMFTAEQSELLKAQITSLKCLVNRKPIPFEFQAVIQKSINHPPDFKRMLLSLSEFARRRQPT
UniProt Q03761: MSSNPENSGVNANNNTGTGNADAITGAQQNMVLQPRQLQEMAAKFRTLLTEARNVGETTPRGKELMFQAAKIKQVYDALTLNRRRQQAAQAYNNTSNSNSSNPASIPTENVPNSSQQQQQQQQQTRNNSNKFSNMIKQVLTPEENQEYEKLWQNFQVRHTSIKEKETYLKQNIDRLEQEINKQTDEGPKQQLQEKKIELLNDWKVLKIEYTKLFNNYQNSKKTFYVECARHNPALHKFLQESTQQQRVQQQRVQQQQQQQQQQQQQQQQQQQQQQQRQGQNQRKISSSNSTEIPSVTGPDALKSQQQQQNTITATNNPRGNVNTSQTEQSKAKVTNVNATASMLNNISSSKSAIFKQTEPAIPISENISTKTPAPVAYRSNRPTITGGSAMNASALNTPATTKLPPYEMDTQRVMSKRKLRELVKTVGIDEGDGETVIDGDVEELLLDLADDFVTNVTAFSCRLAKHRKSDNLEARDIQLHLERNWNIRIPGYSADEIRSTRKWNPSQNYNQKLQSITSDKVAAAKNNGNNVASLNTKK
UniProt P32597, residues 1-300: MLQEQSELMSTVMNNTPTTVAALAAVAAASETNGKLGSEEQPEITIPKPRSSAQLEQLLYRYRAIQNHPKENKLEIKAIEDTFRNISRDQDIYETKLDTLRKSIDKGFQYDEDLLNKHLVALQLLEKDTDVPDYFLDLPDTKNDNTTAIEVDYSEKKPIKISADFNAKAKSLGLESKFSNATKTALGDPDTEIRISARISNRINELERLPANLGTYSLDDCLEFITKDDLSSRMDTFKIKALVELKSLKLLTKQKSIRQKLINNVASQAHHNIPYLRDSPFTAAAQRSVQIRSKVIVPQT
UniProt P18888: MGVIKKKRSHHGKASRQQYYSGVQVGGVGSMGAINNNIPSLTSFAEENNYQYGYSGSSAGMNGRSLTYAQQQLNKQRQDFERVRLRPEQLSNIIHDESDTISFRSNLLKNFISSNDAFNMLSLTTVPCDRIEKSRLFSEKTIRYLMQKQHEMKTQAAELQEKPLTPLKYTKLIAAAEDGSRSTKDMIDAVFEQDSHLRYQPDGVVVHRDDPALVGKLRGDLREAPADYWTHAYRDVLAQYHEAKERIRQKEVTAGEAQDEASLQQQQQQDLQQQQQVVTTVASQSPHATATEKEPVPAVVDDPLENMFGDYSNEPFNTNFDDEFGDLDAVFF
UniProt P53115, residues 1-670: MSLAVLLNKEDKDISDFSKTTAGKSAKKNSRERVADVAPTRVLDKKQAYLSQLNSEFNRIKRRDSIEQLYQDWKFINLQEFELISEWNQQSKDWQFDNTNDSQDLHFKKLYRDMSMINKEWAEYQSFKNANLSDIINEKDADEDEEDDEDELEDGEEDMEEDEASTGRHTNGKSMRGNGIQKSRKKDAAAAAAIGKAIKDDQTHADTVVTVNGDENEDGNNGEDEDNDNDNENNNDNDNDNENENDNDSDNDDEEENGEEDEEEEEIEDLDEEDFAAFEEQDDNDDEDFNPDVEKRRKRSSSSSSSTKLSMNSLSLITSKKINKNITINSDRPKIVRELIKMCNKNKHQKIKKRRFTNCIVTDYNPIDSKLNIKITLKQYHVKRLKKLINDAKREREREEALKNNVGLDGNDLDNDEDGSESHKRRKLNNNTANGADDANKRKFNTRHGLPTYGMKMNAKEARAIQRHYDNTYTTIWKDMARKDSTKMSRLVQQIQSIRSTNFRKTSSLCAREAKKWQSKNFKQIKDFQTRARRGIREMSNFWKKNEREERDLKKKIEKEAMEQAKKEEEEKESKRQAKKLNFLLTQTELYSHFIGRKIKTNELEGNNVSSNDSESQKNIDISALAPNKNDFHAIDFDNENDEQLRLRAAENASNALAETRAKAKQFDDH

Assay [1] addresses GST-Myc TAD1 (aa 1-41) (human) (UniProt P01106). Description: pull-down; GST-TAD fusions immobilised on GSH sepharose, incubated with total protein extracts of yeast transformants containing HA fusions of coactivators; buffer SA-125 (20 mM HEPES pH 7.6, 1 mM DTT, 1 mM EDTA, 125 mM K-acetate, 20% glycerol, 1% NP-40); washed with PBS, eluted with free GSH; blot with anti-HA-peroxidase conjugate; only the target purified.

In assay [2] the target is GST-Myc TAD2 (aa 91-140) (human) (UniProt P01106). The assay is described as above.

These are yes or no findings as the source states them, for the method shown. In cells and extracts the contact can be indirect. Binding can be weak; no strength is given. Sequences can lack the tags named with a protein.

Consider “Snf5 (aa 1-334), HA fusion (from UniProt P18480 1-334) (domain or fragment)”, for which the binding result in assay [1] and in assay [2] was “binds” each time.
Regarding “Swi2 (aa 1-307), HA fusion (from UniProt P22082 1-307) (domain or fragment)”, the binding entry in assay [1] and in assay [2] was “binds” throughout.
Turning to “Taf12, HA fusion (from UniProt Q03761 1-539)”, the binding result in assay [1] and in assay [2] was “binds” in each case.
As to “Sth1 (aa 1-300), HA fusion (from UniProt P32597 1-300) (domain or fragment)”, the binding entry in assay [1] and in assay [2] was “binds” in each case.
In the case of “Snf6 (full-length), HA fusion (from UniProt P18888 1-332)”, the binding entry in assay [1] and in assay [2] was “binds” throughout.
Turning to “Ino80 (aa 1-670), HA fusion (from UniProt P53115 1-670) (domain or fragment)”, the binding entry in assay [1] and in assay [2] was “binds” throughout.

B1: Taf10, HA fusion (protein, UniProt Q12030 1-206)
chain: MDFEEDYDAEFDDNQEGQLETPFPSVAGADDGDNDNDDSVAENMKKKQKREAVVDDGSENAFGIPEFTRKDKTLEEILEMMDSTPPIIPDAVIDYYLTKNGFNVADVRVKRLLALATQKFVSDIAKDAYEYSRIRSSVAVSNANNSQARARQLLQGQQQPGVQQISQQQHQQNEKTTASKVVLTVNDLSSAVAEYGLNIGRPDFYR
On to B1, for which the binding result in assay [1] and in assay [2] was “binds” each time.

B2: Taf1 (aa 1-250), HA fusion (domain or fragment, UniProt P46677 1-250)
chain: MVKQQGSGKTNLANEDEAYEAIFGGEFGSLEIGSYIGGDEGANSKDYTEHLPDAVDFEDEDELADDDDDLPEESDANLHPAMMTMGAYDDVNENGAVLGIDSNSLNMQLPEINGDLSQQFILEDDGGTPATSNALFMGMDANEIHLATETGVLDGSGANEIGHSQLSIGGVNGNDMSINGGFIMEPDMSDGKHKKATKLDLINHEKYLLKKYFPDFEKGKILKWNKLIYRRSVPYHWHSEISRVKKPFMP
Consider B2, for which the binding entry in assay [1] and in assay [2] was “binds” in each case.

B3: Swi1 (aa 329-657), HA fusion (domain or fragment, UniProt P09547 329-657)
chain: RAAMFAALQQKQQQRFQALQQQQQQQQNQQQQNQQPQQQQQQQQNPKFLQSQRQQQQRSILQSLNPALQEKISTELNNKQYELFMKSLIENCKKRNMPLQSIPEIGNRKINLFYLYMLVQKFGGADQVTRTQQWSMVAQRLQISDYQQLESIYFRILLPYERHMISQEGIKETQAKRIFLQQFLQELLKKVQQQQQAAALANANNNINSASSAPTPAAPGASVPATAAPGTEAGIVPVSANTPKSLNSNININVNNNNIGQQQVKKPRKQRVKKKTKKELELERKEREDFQKRQQKLLEDQQRQQKLLLETKLRQQYEIELKKLPKVYK
Take B3: the binding result in assay [1] and in assay [2] was “binds” in each case.

B4: Taf4, HA fusion (protein, UniProt P50105 1-388)
chain: MANSPKKPSDGTGVSASDTPKYQHTVPETKPAFNLSPGKASELSHSLPSPSQIKSTAHVSSTHNDAAGNTDDSVLPKNVSPTTNLRVESNGDTNNMFSSPAGLALPKKDDKKKNKGTSKADSKDGKASNSSGQNAQQQSDPNKMQDVLFSAGIDVREEEALLNSSINASKSQVQTNNVKIPNHLPFLHPEQVSNYMRKVGKEQNFNLTPTKNPEILDMMSSACENYMRDILTNAIVISRHRRKAVKINSGRRSEVSAALRAIALIQKKEEERRVKKRIALGLEKEDYENKIDSEETLHRASNVTAGLRAGSKKQYGWLTSSVNKPTSLGAKSSGKVASDITARGESGLKFREAREEPGIVMRDLLFALENRRNSVQTIISKGYAKIRD
Regarding B4, the binding entry in assay [1] and in assay [2] was “binds” in each case.

B5: Taf6, HA fusion (protein, UniProt P53040 1-516)
chain: MSTQQQSYTIWSPQDTVKDVAESLGLENINDDVLKALAMDVEYRILEIIEQAVKFKRHSKRDVLTTDDVSKALRVLNVEPLYGYYDGSEVNKAVSFSKVNTSGGQSVYYLDEEEVDFDRLINEPLPQVPRLPTFTTHWLAVEGVQPAIIQNPNLNDIRVSQPPFIRGAIVTALNDNSLQTPVTSTTASASVTDTGASQHLSNVKPGQNTEVKPLVKHVLSKELQIYFNKVISTLTAKSQADEAAQHMKQAALTSLRTDSGLHQLVPYFIQFIAEQITQNLSDLQLLTTILEMIYSLLSNTSIFLDPYIHSLMPSILTLLLAKKLGGSPKDDSPQEIHEFLERTNALRDFAASLLDYVLKKFPQAYKSLKPRVTRTLLKTFLDINRVFGTYYGCLKGVSVLEGESIRFFLGNLNNWARLVFNESGITLDNIEEHLNDDSNPTRTKFTKEETQILVDTVISALLVLKKDLPDLYEGKGEKVTDEDKEKLLERCGVTIGFHILKRDDAKELISAIFFGE
With B5, the binding result in assay [1] and in assay [2] was “binds” throughout.

B6: Toa1, HA fusion (protein, UniProt P32773 1-286)
chain: MSNAEASRVYEIIVESVVNEVREDFENAGIDEQTLQDLKNIWQKKLTETKVTTFSWDNQFNEGNINGVQNDLNFNLATPGVNSSEFNIKEENTGNEGLILPNINSNNNIPHSGETNINTNTVEATNNSGATLNTNTSGNTNADVTSQPKIEVKPEIELTINNANITTVENIDDESEKKDDEEKEEDVEKTRKEKEQIEQVKLQAKKEKRSALLDTDEVGSELDDSDDDYLISEGEEDGPDENLMLCLYDKVTRTKARWKCSLKDGVVTINRNDYTFQKAQVEAEWV
For B6, the binding result in assay [1] and in assay [2] was “binds” each time.
